Assay results: paper PMC3796466
These are yes or no findings as the source states them, for the method shown. In cells and extracts the contact can be indirect. Where a sequence is shown, tags or fusion partners need not be part of it.

T1: FLAG-tagged mouse Hfe (mHfe) (mouse) (UniProt P70387)
T1 sequence: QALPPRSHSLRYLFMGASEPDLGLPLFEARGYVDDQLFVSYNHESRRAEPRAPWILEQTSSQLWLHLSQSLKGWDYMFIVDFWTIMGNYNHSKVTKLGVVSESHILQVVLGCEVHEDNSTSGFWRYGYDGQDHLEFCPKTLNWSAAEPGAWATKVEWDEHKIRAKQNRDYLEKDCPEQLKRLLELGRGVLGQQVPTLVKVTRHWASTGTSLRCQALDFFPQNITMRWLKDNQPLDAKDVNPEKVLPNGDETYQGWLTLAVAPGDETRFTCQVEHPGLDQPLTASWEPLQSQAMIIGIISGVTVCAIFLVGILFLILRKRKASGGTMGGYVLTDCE

T2: amino-terminally double myc-tagged mouse transferrin receptor 2 (mTfr2), wild type (mouse) (UniProt Q9JKX3)
T2 sequence: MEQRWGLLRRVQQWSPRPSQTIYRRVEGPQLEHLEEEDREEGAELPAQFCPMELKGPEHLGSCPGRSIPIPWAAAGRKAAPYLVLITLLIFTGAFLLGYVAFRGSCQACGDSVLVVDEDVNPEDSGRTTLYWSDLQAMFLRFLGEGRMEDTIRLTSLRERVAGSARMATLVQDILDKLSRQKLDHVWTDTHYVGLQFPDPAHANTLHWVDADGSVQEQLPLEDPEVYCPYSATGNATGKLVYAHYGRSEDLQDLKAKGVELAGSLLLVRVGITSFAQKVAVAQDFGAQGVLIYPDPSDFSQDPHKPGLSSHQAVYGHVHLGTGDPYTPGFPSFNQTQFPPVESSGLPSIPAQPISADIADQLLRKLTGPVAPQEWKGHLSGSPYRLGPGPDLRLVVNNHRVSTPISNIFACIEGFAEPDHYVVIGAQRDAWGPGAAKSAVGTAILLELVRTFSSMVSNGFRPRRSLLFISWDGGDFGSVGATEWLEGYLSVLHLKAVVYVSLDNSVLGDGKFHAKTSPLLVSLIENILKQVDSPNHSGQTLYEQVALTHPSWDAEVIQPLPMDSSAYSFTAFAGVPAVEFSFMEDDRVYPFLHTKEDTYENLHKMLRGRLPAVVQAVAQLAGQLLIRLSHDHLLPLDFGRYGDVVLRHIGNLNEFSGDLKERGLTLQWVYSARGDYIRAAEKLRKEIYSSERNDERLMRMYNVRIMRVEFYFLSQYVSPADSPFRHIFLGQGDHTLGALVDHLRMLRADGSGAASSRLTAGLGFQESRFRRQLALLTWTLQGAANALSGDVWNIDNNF


Experiments:
[1] = biological target: T1, FLAG-tagged mouse Hfe (mHfe) (mouse); test: co-IP; lysates of Hepa 1-6 cells stably co-expressing FLAG-Hfe and myc-Tfr2 (WT or Y245X); anti-DYKDDDDK beads or anti-Tfr2 cross-linked to protein A/G beads, overnight at 4°C; cells treated with the surface crosslinker BS3 for 30 minutes at 4 °C before harvest; also cells cultured with 2 mg/ml apo-Tf or holo-Tf for 24 hours; rabbit and mouse IgG beads as controls
[2] = biological target: T2, amino-terminally double myc-tagged mouse transferrin receptor 2 (mTfr2), wild type (mouse); test: proximity ligation; Duolink mouse/rabbit red kit on fixed, saponin-permeabilized Hepa1-6 cells stably co-expressing FLAG-Hfe and myc-Tfr2 (WT); antibodies against FLAG, Tfr1 and Tfr2; cells untreated or cultured with 2 mg/ml apo-Tf or holo-Tf for 24 hours
[3] = biological target: T2, amino-terminally double myc-tagged mouse transferrin receptor 2 (mTfr2), wild type (mouse); test: co-IP; lysates of Hepa 1-6 cells stably co-expressing FLAG-Hfe and myc-Tfr2 (WT or Y245X); anti-DYKDDDDK beads or anti-Tfr2 cross-linked to protein A/G beads, overnight at 4°C; cells treated with the surface crosslinker BS3 for 30 minutes at 4 °C before harvest; also cells cultured with 2 mg/ml apo-Tf or holo-Tf for 24 hours; rabbit and mouse IgG beads as controls

binding [1]	binding [2]	binding [3]	Binder
no binding			amino-terminally double myc-tagged mouse Tfr2 Y245X truncation mutant (domain or fragment, UniProt Q9JKX3 1-244) MEQRWGLLRRVQQWSPRPSQTIYRRVEGPQLEHLEEEDREEGAELPAQFCPMELKGPEHLGSCPGRSIPIPWAAAGRKAAPYLVLITLLIFTGAFLLGYVAFRGSCQACGDSVLVVDEDVNPEDSGRTTLYWSDLQAMFLRFLGEGRMEDTIRLTSLRERVAGSARMATLVQDILDKLSRQKLDHVWTDTHYVGLQFPDPAHANTLHWVDADGSVQEQLPLEDPEVYCPYSATGNATGKLVYAH
no binding			amino-terminally double myc-tagged mouse transferrin receptor 2 (mTfr2), wild type (receptor, UniProt Q9JKX3 1-798) MEQRWGLLRRVQQWSPRPSQTIYRRVEGPQLEHLEEEDREEGAELPAQFCPMELKGPEHLGSCPGRSIPIPWAAAGRKAAPYLVLITLLIFTGAFLLGYVAFRGSCQACGDSVLVVDEDVNPEDSGRTTLYWSDLQAMFLRFLGEGRMEDTIRLTSLRERVAGSARMATLVQDILDKLSRQKLDHVWTDTHYVGLQFPDPAHANTLHWVDADGSVQEQLPLEDPEVYCPYSATGNATGKLVYAHYGRSEDLQDLKAKGVELAGSLLLVRVGITSFAQKVAVAQDFGAQGVLIYPDPSDFSQDPHKPGLSSHQAVYGHVHLGTGDPYTPGFPSFNQTQFPPVESSGLPSIPAQPISADIADQLLRKLTGPVAPQEWKGHLSGSPYRLGPGPDLRLVVNNHRVSTPISNIFACIEGFAEPDHYVVIGAQRDAWGPGAAKSAVGTAILLELVRTFSSMVSNGFRPRRSLLFISWDGGDFGSVGATEWLEGYLSVLHLKAVVYVSLDNSVLGDGKFHAKTSPLLVSLIENILKQVDSPNHSGQTLYEQVALTHPSWDAEVIQPLPMDSSAYSFTAFAGVPAVEFSFMEDDRVYPFLHTKEDTYENLHKMLRGRLPAVVQAVAQLAGQLLIRLSHDHLLPLDFGRYGDVVLRHIGNLNEFSGDLKERGLTLQWVYSARGDYIRAAEKLRKEIYSSERNDERLMRMYNVRIMRVEFYFLSQYVSPADSPFRHIFLGQGDHTLGALVDHLRMLRADGSGAASSRLTAGLGFQESRFRRQLALLTWTLQGAANALSGDVWNIDNNF
	no binding	no binding	FLAG-tagged mouse Hfe (mHfe) (protein, UniProt P70387 25-359) QALPPRSHSLRYLFMGASEPDLGLPLFEARGYVDDQLFVSYNHESRRAEPRAPWILEQTSSQLWLHLSQSLKGWDYMFIVDFWTIMGNYNHSKVTKLGVVSESHILQVVLGCEVHEDNSTSGFWRYGYDGQDHLEFCPKTLNWSAAEPGAWATKVEWDEHKIRAKQNRDYLEKDCPEQLKRLLELGRGVLGQQVPTLVKVTRHWASTGTSLRCQALDFFPQNITMRWLKDNQPLDAKDVNPEKVLPNGDETYQGWLTLAVAPGDETRFTCQVEHPGLDQPLTASWEPLQSQAMIIGIISGVTVCAIFLVGILFLILRKRKASGGTMGGYVLTDCE
